PubChem BioAssay AID1159584 | Peter MacCallum Cancer Centre | 2016
This is one part, drawn at random, of about 18,000 reagents. Not all columns of the deposit are shown. Reagent sequences are not shown. The record does not give: the amount of reagent, the time to read-out.

Assay: 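Genes that CDH1-null MCF10A cells selectively depend on to survive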 (primary screen)
Cell system: human MCF10A breast epithelial cells, parental and CDH1-null
Reagent: siRNA against human genes
Measured: 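ATP luminescence (CellTiter-Glo) viability per line relative to mean mock wells over all plates, and the ratio of CDH1-null to parental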
Direction: CDH1-null / parental viability ratio: higher = CDH1-null cells survive relatively better than parental; CDH1-null viability vs mock: higher = more viable CDH1-null cells
Units: CDH1-null viability vs mock in fraction of mock

Which result is listed for TMEM11 (transmembrane protein 11)?
CDH1-null / parental viability ratio: 0.74; CDH1-null viability vs mock: 0.58

How did the screen score PLCG1 (phospholipase C gamma 1)?
CDH1-null / parental viability ratio: 0.79; CDH1-null viability vs mock: 0.6

For PKP3 (plakophilin 3), how do the results read?
CDH1-null / parental viability ratio: 0.75; CDH1-null viability vs mock: 0.65

For CALR (calreticulin), how do the results read?
CDH1-null / parental viability ratio: 1.01; CDH1-null viability vs mock: 0.83

For CT47A2 (cancer/testis antigen family 47 member A2), what was measured?
CDH1-null / parental viability ratio: 1.15; CDH1-null viability vs mock: 1.06

With DPYS (dihydropyrimidinase), what does the deposit list?
CDH1-null / parental viability ratio: 1.35; CDH1-null viability vs mock: 1.01

How did the screen score PTDSS2 (phosphatidylserine synthase 2)?
CDH1-null / parental viability ratio: 1.17; CDH1-null viability vs mock: 0.97

With LGI3 (leucine rich repeat LGI family member 3), what does the deposit list?
CDH1-null / parental viability ratio: 0.73; CDH1-null viability vs mock: 0.48

For CHRM3 (cholinergic receptor muscarinic 3), what does the deposit list?
CDH1-null / parental viability ratio: 1.49; CDH1-null viability vs mock: 0.79

With EP400 (E1A binding protein p400), how do the results read?
CDH1-null / parental viability ratio: 1.55; CDH1-null viability vs mock: 0.62

For TMEM60 (transmembrane protein 60), how do the results read?
CDH1-null / parental viability ratio: 1.12; CDH1-null viability vs mock: 0.56

With PPP1R2 (protein phosphatase 1 regulatory inhibitor subunit 2), what does the deposit list?
CDH1-null / parental viability ratio: 1.28; CDH1-null viability vs mock: 0.82

For B4GALT3 (beta-1,4-galactosyltransferase 3), what does the deposit list?
CDH1-null / parental viability ratio: 0.94; CDH1-null viability vs mock: 0.9

With UTY, how do the results read?
CDH1-null / parental viability ratio: 0.97; CDH1-null viability vs mock: 0.93

What did the screen give for PPTC7 (protein phosphatase targeting COQ7)?
CDH1-null / parental viability ratio: 1.16; CDH1-null viability vs mock: 0.86

For PNPLA7 (patatin like domain 7, lysophospholipase), what was measured?
CDH1-null / parental viability ratio: 1.12; CDH1-null viability vs mock: 1.05

How did the screen score GADD45G (growth arrest and DNA damage inducible gamma)?
CDH1-null / parental viability ratio: 0.88; CDH1-null viability vs mock: 0.92

How did the screen score SIGIRR (single Ig and TIR domain containing)?
CDH1-null / parental viability ratio: 1.28; CDH1-null viability vs mock: 1.18

What is on record for HYCC2 (hyccin PI4KA lipid kinase complex subunit 2)?
CDH1-null / parental viability ratio: 0.89; CDH1-null viability vs mock: 0.4

Targets listed so far whose gene name starts with T or t (2):
TMEM11 (transmembrane protein 11) — CDH1-null / parental viability ratio = 0.74; CDH1-null viability vs mock = 0.58
TMEM60 (transmembrane protein 60) — CDH1-null / parental viability ratio = 1.12; CDH1-null viability vs mock = 0.56

Next records:
For VASH2 (vasohibin 2), what was measured?
CDH1-null / parental viability ratio: 0.76; CDH1-null viability vs mock: 0.81

For OS9 (OS9 endoplasmic reticulum lectin), how do the results read?
CDH1-null / parental viability ratio: 1.03; CDH1-null viability vs mock: 0.97

With MTHFR (methylenetetrahydrofolate reductase), what was measured?
CDH1-null / parental viability ratio: 1.18; CDH1-null viability vs mock: 0.92

For AGAP1 (ArfGAP with GTPase domain, ankyrin repeat and PH domain 1), what does the deposit list?
CDH1-null / parental viability ratio: 1.08; CDH1-null viability vs mock: 0.99

How did the screen score IL10RA (interleukin 10 receptor subunit alpha)?
CDH1-null / parental viability ratio: 0.99; CDH1-null viability vs mock: 1.1

What did the screen give for TGFA (transforming growth factor alpha)?
CDH1-null / parental viability ratio: 1.05; CDH1-null viability vs mock: 0.98

With FABP5 (fatty acid binding protein 5), what does the deposit list?
CDH1-null / parental viability ratio: 0.9; CDH1-null viability vs mock: 0.95

For CDK14 (cyclin dependent kinase 14), what was measured?
CDH1-null / parental viability ratio: 0.97; CDH1-null viability vs mock: 0.89

With CREB3L4 (cAMP responsive element binding protein 3 like 4), what does the deposit list?
CDH1-null / parental viability ratio: 1.47; CDH1-null viability vs mock: 0.44

For GDAP1 (ganglioside induced differentiation associated protein 1), what does the deposit list?
CDH1-null / parental viability ratio: 1.02; CDH1-null viability vs mock: 0.99

For GPR37L1 (G protein-coupled receptor 37 like 1), what was measured?
CDH1-null / parental viability ratio: 1.36; CDH1-null viability vs mock: 0.76

For BANP (BTG3 associated nuclear protein), what was measured?
CDH1-null / parental viability ratio: 0.62; CDH1-null viability vs mock: 0.46

For ALPK3 (alpha kinase 3), what does the deposit list?
CDH1-null / parental viability ratio: 0.9; CDH1-null viability vs mock: 0.72

What did the screen give for BTN1A1 (butyrophilin subfamily 1 member A1)?
CDH1-null / parental viability ratio: 0.78; CDH1-null viability vs mock: 0.54

With POLA1 (DNA polymerase alpha 1, catalytic subunit), what was measured?
CDH1-null / parental viability ratio: 0.76; CDH1-null viability vs mock: 0.42

Which result is listed for GCLC (glutamate-cysteine ligase catalytic subunit)?
CDH1-null / parental viability ratio: 0.95; CDH1-null viability vs mock: 0.78

With KIFBP (kinesin family binding protein), how do the results read?
CDH1-null / parental viability ratio: 1.27; CDH1-null viability vs mock: 1.04

What is on record for CHD3 (chromodomain helicase DNA binding protein 3)?
CDH1-null / parental viability ratio: 0.81; CDH1-null viability vs mock: 0.6

With ACER3 (alkaline ceramidase 3), how do the results read?
CDH1-null / parental viability ratio: 1.11; CDH1-null viability vs mock: 0.97

Which result is listed for FNDC5 (fibronectin type III domain containing 5)?
CDH1-null / parental viability ratio: 1.52; CDH1-null viability vs mock: 0.79

Which result is listed for STX7 (syntaxin 7)?
CDH1-null / parental viability ratio: 0.95; CDH1-null viability vs mock: 0.78

Which result is listed for OPN1SW (opsin 1, short wave sensitive)?
CDH1-null / parental viability ratio: 1.92; CDH1-null viability vs mock: 0.77

Which result is listed for CD276 (CD276 molecule)?
CDH1-null / parental viability ratio: 0.98; CDH1-null viability vs mock: 0.52

With RIPPLY2 (ripply transcriptional repressor 2), how do the results read?
CDH1-null / parental viability ratio: 0.78; CDH1-null viability vs mock: 0.5

How did the screen score SPANXN4 (SPANX family member N4)?
CDH1-null / parental viability ratio: 1.04; CDH1-null viability vs mock: 0.59

With CD99 (CD99 molecule (Xg blood group)), how do the results read?
CDH1-null / parental viability ratio: 0.77; CDH1-null viability vs mock: 0.54
